{
  "source": "PubChem BioAssay AID1487",
  "about": "(National Center for Advancing Translational Sciences (NCATS), 2009)",
  "experiment": "qHTS Assay for Modulators of Lamin A Splicing",
  "conditions": "HeLa LMNA splicing GFP/RFP minigene ratio, 48 h",
  "method_in_brief": "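S3 HeLa cells stably expressing lamin A-EGFP splicing minigene plus DsRed2, 600 cells/well, 48 h compound exposure at 37C. Laser-scanning cytometry; analysed as GFP (500-530 nm)/RFP (575-640 nm) total intensity ratio; 0.5% DMSO vehicle.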",
  "key": {"[1]": {"conditions": "measured here: RFP viability control channel"}, "[2]": {"conditions": "measured here: GFP splicing reporter channel"}},
  "note": "Values joined by “and” are separate entries in the source; they are usually repeats but may differ in a detail not shown here. Equal values may be shown once. Some of the results follow. Further columns of the screen follow, without active or inactive calls. Most of these compounds were active or inconclusive in the main read-out, so they are no random draw. The note in brackets gives the kind of curve behind each potency; many fits are weak.",
  "data": [
    {"molecule": "CCC(C)NC(=O)c1cccc(NC(=O)c2nsc3ccccc23)c1", "note": "(configuration not stated)", "values": [
      {"measurement": "AC50", "setting": "[1]", "value": "3.98 µM [falling, full curve, poor fit]"}
    ]},
    {"molecule": "COCCn1c(=O)c(-c2ccc(Cl)cc2)nc2cnc(OCc3ccccc3)nc21", "values": [
      {"measurement": "AC50", "setting": "[1]", "value": "17.8 µM [falling, single point]"}
    ]},
    {"molecule": "COC(=O)c1c(NC(=O)c2cccc([N+](=O)[O-])c2)sc(C(N)=O)c1C", "values": [
      {"measurement": "AC50", "setting": "[2]", "value": "0.00316 µM [rising, full curve, poor fit]"}
    ]},
    {"molecule": "COC(=O)[C@@H]1[C@@H]2C[C@H]3c4[nH]c5ccccc5c4CCN3C[C@@H]2CC[C@@H]1O", "values": [
      {"measurement": "AC50", "setting": "[1]", "value": "3.16 µM [falling, single point] and 355 nM [falling, full curve] and 89.1 nM [falling, full curve, poor fit]"}
    ]},
    {"molecule": "COc1cccc(Cn2c(=O)cnc3cnc(Nc4cccc(OC)c4)nc32)c1", "values": [
      {"measurement": "AC50", "setting": "[2]", "value": "8.91 µM [falling, partial curve]"},
      {"measurement": "AC50", "setting": "[1]", "value": "10 µM [falling, partial curve]"}
    ]},
    {"molecule": "O=C(O)CC/C(=C\\c1cc([N+](=O)[O-])ccc1Cl)c1nc2ccccc2s1", "values": [
      {"measurement": "AC50", "setting": "[2]", "value": "3.16 µM [rising, full curve, poor fit]"}
    ]},
    {"molecule": "CCN(CC)CCNC(=O)c1c(C)[nH]c(/C=C2\\C(=O)Nc3ccc(F)cc32)c1C", "values": [
      {"measurement": "AC50", "setting": "[2]", "value": "0.0141 µM [falling, full curve]"}
    ]},
    {"molecule": "Cc1ccc(-c2noc(CCC(=O)NCCN3CCc4ccccc4C3)n2)cc1", "values": [
      {"measurement": "AC50", "setting": "[1]", "value": "35.5 µM [rising, single point]"}
    ]},
    {"molecule": "CC1(C)Cc2c(sc3c2c(=N)n(Cc2ccco2)c(=O)n3Cc2ccc(F)cc2)CO1", "values": [
      {"measurement": "AC50", "setting": "[2]", "value": "17.8 µM [rising, single point]"},
      {"measurement": "AC50", "setting": "[1]", "value": "5.62 µM [rising, single point]"}
    ]},
    {"molecule": "CCOc1ccc(Cn2c(CNS(=O)(=O)c3cccc(Cl)c3)nc3cccnc32)cc1", "values": [
      {"measurement": "AC50", "setting": "[2]", "value": "1.12 µM [falling, full curve, poor fit]"},
      {"measurement": "AC50", "setting": "[1]", "value": "3.98 µM [falling, partial curve, poor fit]"}
    ]},
    {"molecule": "CCC(C(=O)OCC(=O)NC(=O)NC(C)(C)C)c1ccccc1", "note": "(configuration not stated)", "values": [
      {"measurement": "AC50", "setting": "[1]", "value": "6.31 µM [falling, partial curve]"}
    ]},
    {"molecule": "O=C(NNc1ccccc1)C(=O)N1CCCCC1", "values": [
      {"measurement": "AC50", "setting": "[1]", "value": "35.5 µM [rising, single point]"}
    ]},
    {"molecule": "COc1ccc(-c2nc3ccc(NS(=O)(=O)c4ccc(Cl)cc4)cc3o2)cc1", "values": [
      {"measurement": "AC50", "setting": "[2]", "value": "22.4 µM [falling, partial curve]"},
      {"measurement": "AC50", "setting": "[1]", "value": "14.1 µM [falling, partial curve]"}
    ]},
    {"molecule": "Cc1cc(N=Nc2ccc(Cl)cc2)cc(CN2CCOCC2)c1O", "values": [
      {"measurement": "AC50", "setting": "[2]", "value": "12.6 µM [rising, partial curve, poor fit]"},
      {"measurement": "AC50", "setting": "[1]", "value": "25.1 µM [rising, single point]"}
    ]},
    {"molecule": "CCOC(=O)c1cc2sccc2n1Cc1ccc(C#N)cc1", "values": [
      {"measurement": "AC50", "setting": "[1]", "value": "0.562 µM [rising, full curve]"}
    ]},
    {"molecule": "CCOc1ccc(NC(=O)CC2C(=O)NCCN2C(=O)c2ccc(Cl)cc2)cc1", "note": "(configuration not stated)", "values": [
      {"measurement": "AC50", "setting": "[1]", "value": "2.82 µM [falling, partial curve, poor fit]"}
    ]},
    {"molecule": "Cc1ccc(CNC(=O)C2=CCN(S(=O)(=O)c3ccc(C)cc3)CC2)cc1", "values": [
      {"measurement": "AC50", "setting": "[1]", "value": "7.08 µM [rising, full curve, poor fit]"}
    ]},
    {"molecule": "Cc1cccc(OCCn2c(SCC(=O)O)nc3ccccc32)c1", "values": [
      {"measurement": "AC50", "setting": "[1]", "value": "3.98 µM [falling, partial curve, poor fit]"}
    ]},
    {"molecule": "CSc1ncnc2c1ncn2C1OC(CO)C(O)C1O", "note": "(configuration not stated)", "values": [
      {"measurement": "AC50", "setting": "[2]", "value": "0.355 µM [rising, full curve]"},
      {"measurement": "AC50", "setting": "[1]", "value": "0.126 µM [rising, full curve, poor fit]"}
    ]},
    {"molecule": "COc1ccc(OC)c(/C=N/Nc2nncn2/N=C/c2cc(OC)ccc2OC)c1", "values": [
      {"measurement": "AC50", "setting": "[2]", "value": "11.2 µM [rising, single point]"},
      {"measurement": "AC50", "setting": "[1]", "value": "12.6 µM [rising, partial curve]"}
    ]},
    {"molecule": "COc1ccccc1NC(=O)CSc1ccc(-c2cccs2)nn1", "values": [
      {"measurement": "AC50", "setting": "[2]", "value": "14.1 µM [falling, single point]"}
    ]},
    {"molecule": "O=C1c2ccccc2NC(c2cn[nH]c2-c2ccc(Cl)cc2)N1O", "note": "(configuration not stated)", "values": [
      {"measurement": "AC50", "setting": "[2]", "value": "8.91 µM [rising, partial curve]"},
      {"measurement": "AC50", "setting": "[1]", "value": "12.6 µM [rising, partial curve]"}
    ]},
    {"molecule": "O=C(COc1ccc(C(=O)c2ccccc2)cc1)NCC(=O)Nc1ccccc1Br", "values": [
      {"measurement": "AC50", "setting": "[2]", "value": "14.1 µM [rising, partial curve, poor fit]"},
      {"measurement": "AC50", "setting": "[1]", "value": "15.8 µM [rising, partial curve]"}
    ]},
    {"molecule": "COc1cccc2c(=S)c(CCC(C)=O)c(C)[nH]c12", "values": [
      {"measurement": "AC50", "setting": "[2]", "value": "12.6 µM [rising, partial curve, poor fit]"}
    ]},
    {"molecule": "O=c1ccc2ccc(OCc3nnc(-c4ccccc4Br)o3)cc2o1", "values": [
      {"measurement": "AC50", "setting": "[1]", "value": "12.6 µM [rising, single point]"}
    ]},
    {"molecule": "CCOC(=O)c1c(NC(=O)c2cccs2)sc2c1CCN(C(=O)OCC)C2", "values": [
      {"measurement": "AC50", "setting": "[2]", "value": "12.6 µM [falling, single point]"},
      {"measurement": "AC50", "setting": "[1]", "value": "14.1 µM [falling, single point]"}
    ]},
    {"molecule": "CCC1(c2ccccc2)NC(=O)N(CC#N)C1=O", "note": "(configuration not stated)", "values": [
      {"measurement": "AC50", "setting": "[1]", "value": "0.0891 µM [falling, full curve, poor fit]"}
    ]},
    {"molecule": "O=C(COC(=O)C12CC3CC(CC(O)(C3)C1)C2)NC12CC3CC(CC(C3)C1)C2", "values": [
      {"measurement": "AC50", "setting": "[2]", "value": "0.251 µM [rising, full curve, poor fit]"}
    ]},
    {"molecule": "Cc1c(C(=O)NCc2ccco2)sc2nc(-c3ccccc3)cn12", "values": [
      {"measurement": "AC50", "setting": "[1]", "value": "12.6 µM [rising, partial curve, poor fit]"}
    ]},
    {"molecule": "Nc1nc(Nc2ccccc2)nc2c1ncn2[C@@H]1O[C@H](CO)[C@H](O)[C@H]1O", "values": [
      {"measurement": "AC50", "setting": "[2]", "value": "25.1 µM [falling, single point]"},
      {"measurement": "AC50", "setting": "[1]", "value": "0.000891 µM [falling, full curve, poor fit]"}
    ]},
    {"molecule": "Cc1cc(S(=O)(=O)NCC(C)C)ccc1OCC(=O)NCc1ccccn1", "values": [
      {"measurement": "AC50", "setting": "[2]", "value": "5.62 µM [rising, partial curve, poor fit]"}
    ]},
    {"molecule": "Cc1cc(NS(=O)(=O)c2ccccc2)cc(Cl)c1O", "values": [
      {"measurement": "AC50", "setting": "[2]", "value": "31.6 µM [rising, single point]"}
    ]},
    {"molecule": "CC#CC[N+](C)(C)CCCCCCCCCCCC", "values": [
      {"measurement": "AC50", "setting": "[2]", "value": "3.55 µM [rising, full curve]"},
      {"measurement": "AC50", "setting": "[1]", "value": "8.91 µM [rising, partial curve]"}
    ]},
    {"molecule": "COc1cccc(-c2ccc3ncnc(NCc4cccnc4)c3c2)c1", "values": [
      {"measurement": "AC50", "setting": "[2]", "value": "17.8 µM [falling, partial curve]"},
      {"measurement": "AC50", "setting": "[1]", "value": "10 µM [falling, partial curve]"}
    ]}
  ]
}
